# Laboratory results as given in the supplement of paper PMC6411743.
# Chains of the proteins cited; added tags and fusions are not shown. Lines headed by an entry give the natural chain unless they say otherwise; changes in a name come on top.
# UniProt Q96C90: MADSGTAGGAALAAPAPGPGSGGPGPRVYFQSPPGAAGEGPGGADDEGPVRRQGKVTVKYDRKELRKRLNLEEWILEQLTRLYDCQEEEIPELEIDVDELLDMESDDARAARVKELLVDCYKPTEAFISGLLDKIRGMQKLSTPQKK
# UniProt Q96DA6: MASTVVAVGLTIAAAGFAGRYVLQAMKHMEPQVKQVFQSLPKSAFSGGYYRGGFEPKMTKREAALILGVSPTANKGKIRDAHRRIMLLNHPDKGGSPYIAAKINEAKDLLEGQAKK
# UniProt Q96LT9: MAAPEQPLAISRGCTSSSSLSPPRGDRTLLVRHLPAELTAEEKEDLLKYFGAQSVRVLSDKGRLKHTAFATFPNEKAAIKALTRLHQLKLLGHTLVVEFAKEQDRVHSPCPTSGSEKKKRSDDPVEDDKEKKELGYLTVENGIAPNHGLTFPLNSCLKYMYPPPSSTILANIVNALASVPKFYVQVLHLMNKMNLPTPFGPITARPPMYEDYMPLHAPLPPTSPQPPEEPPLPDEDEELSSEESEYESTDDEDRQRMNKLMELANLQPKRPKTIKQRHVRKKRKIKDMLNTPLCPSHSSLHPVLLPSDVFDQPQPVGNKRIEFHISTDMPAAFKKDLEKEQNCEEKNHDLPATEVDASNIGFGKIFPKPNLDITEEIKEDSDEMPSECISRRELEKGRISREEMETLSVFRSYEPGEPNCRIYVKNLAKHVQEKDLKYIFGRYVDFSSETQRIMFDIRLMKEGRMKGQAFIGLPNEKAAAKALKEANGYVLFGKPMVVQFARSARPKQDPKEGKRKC
# UniProt Q96EZ8, whole entry: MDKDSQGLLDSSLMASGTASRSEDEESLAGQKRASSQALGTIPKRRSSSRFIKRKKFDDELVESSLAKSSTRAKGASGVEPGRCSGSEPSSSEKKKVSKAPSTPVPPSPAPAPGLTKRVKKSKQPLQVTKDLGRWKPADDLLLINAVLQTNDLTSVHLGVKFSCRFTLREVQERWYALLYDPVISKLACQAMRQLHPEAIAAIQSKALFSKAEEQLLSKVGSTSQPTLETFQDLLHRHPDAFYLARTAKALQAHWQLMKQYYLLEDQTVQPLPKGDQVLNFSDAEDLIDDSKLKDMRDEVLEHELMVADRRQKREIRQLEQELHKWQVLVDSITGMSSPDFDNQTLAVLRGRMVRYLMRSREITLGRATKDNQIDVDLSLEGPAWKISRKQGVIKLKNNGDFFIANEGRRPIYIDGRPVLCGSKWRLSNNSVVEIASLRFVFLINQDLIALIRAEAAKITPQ
# UniProt Q96EX2: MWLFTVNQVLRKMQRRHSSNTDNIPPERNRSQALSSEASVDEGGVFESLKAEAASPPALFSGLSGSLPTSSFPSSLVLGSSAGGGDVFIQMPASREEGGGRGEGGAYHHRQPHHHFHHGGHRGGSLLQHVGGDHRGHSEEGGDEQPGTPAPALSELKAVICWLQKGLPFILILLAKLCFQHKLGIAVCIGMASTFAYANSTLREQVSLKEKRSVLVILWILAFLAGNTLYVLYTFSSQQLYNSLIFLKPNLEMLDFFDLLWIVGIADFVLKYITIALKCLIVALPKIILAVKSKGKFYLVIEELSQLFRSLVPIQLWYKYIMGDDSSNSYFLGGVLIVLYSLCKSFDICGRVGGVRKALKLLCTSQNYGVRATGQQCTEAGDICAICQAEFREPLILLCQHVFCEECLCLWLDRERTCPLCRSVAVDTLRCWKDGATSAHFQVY
# UniProt Q96CW6: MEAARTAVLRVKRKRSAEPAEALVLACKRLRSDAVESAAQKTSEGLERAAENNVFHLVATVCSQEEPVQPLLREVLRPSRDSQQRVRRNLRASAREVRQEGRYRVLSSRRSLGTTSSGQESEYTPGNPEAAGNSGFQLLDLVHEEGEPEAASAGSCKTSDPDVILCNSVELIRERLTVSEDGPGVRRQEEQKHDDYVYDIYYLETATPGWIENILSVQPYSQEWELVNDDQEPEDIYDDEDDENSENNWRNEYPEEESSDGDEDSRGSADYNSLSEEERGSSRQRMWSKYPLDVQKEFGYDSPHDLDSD
# UniProt Q96P16: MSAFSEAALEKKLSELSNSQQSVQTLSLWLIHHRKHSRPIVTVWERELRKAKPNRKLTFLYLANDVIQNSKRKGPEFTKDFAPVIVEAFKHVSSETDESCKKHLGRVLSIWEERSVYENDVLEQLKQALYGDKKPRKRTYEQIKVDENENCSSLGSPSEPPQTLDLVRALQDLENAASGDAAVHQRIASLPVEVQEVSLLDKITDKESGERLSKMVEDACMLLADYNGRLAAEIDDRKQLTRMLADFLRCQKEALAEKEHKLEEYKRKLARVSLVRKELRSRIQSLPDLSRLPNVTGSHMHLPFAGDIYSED
# UniProt Q96HN2, whole entry: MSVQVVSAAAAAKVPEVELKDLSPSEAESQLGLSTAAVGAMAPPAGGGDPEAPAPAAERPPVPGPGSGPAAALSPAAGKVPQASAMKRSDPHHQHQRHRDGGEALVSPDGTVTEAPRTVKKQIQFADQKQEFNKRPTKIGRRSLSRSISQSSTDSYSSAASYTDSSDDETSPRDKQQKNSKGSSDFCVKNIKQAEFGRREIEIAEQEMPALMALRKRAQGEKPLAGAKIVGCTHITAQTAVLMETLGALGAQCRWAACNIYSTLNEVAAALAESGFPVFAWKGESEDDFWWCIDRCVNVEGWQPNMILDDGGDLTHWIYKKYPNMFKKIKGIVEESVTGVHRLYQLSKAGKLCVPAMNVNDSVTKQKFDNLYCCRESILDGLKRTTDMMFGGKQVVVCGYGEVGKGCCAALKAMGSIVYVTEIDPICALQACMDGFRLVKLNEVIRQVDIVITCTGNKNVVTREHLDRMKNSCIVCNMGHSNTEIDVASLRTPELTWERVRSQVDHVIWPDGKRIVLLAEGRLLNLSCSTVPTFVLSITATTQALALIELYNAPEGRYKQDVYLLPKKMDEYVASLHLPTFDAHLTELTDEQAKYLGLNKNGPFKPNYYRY
# UniProt Q96AG4: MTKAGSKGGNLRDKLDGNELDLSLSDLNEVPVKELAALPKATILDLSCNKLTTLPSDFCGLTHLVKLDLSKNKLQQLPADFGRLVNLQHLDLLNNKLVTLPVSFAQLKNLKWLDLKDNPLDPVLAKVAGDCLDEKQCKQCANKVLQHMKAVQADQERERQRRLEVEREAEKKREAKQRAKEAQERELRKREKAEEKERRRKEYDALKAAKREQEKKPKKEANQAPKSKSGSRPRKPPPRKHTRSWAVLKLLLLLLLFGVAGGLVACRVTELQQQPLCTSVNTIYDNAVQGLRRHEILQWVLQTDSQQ
# UniProt Q96FJ2, whole entry: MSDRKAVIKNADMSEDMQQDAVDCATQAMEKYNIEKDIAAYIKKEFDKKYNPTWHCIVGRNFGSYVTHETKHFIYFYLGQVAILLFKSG
# UniProt Q96CW5, whole entry: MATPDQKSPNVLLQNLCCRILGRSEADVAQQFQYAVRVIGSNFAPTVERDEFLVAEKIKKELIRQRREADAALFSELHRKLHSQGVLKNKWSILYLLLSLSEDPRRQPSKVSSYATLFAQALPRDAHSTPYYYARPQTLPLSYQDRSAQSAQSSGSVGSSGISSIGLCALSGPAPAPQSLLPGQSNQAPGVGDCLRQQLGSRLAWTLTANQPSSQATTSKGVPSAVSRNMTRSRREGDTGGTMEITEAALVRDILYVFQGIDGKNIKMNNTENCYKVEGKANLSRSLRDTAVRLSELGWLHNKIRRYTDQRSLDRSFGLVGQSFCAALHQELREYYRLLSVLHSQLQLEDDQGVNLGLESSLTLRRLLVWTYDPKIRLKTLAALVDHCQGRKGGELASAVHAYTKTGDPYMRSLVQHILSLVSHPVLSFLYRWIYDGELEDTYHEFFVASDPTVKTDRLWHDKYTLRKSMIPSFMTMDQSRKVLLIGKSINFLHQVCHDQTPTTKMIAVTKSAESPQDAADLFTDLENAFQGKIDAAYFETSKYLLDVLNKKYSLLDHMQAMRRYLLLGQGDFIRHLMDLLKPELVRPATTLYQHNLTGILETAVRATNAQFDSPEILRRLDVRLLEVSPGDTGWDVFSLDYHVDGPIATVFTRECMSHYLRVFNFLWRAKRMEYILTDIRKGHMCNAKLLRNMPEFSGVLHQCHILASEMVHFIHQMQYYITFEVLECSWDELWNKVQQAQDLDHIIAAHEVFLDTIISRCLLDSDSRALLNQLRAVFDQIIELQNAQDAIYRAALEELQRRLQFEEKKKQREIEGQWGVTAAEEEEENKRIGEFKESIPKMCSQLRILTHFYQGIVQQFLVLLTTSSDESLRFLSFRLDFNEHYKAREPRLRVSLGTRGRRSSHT
# UniProt Q93009, whole entry, looked up: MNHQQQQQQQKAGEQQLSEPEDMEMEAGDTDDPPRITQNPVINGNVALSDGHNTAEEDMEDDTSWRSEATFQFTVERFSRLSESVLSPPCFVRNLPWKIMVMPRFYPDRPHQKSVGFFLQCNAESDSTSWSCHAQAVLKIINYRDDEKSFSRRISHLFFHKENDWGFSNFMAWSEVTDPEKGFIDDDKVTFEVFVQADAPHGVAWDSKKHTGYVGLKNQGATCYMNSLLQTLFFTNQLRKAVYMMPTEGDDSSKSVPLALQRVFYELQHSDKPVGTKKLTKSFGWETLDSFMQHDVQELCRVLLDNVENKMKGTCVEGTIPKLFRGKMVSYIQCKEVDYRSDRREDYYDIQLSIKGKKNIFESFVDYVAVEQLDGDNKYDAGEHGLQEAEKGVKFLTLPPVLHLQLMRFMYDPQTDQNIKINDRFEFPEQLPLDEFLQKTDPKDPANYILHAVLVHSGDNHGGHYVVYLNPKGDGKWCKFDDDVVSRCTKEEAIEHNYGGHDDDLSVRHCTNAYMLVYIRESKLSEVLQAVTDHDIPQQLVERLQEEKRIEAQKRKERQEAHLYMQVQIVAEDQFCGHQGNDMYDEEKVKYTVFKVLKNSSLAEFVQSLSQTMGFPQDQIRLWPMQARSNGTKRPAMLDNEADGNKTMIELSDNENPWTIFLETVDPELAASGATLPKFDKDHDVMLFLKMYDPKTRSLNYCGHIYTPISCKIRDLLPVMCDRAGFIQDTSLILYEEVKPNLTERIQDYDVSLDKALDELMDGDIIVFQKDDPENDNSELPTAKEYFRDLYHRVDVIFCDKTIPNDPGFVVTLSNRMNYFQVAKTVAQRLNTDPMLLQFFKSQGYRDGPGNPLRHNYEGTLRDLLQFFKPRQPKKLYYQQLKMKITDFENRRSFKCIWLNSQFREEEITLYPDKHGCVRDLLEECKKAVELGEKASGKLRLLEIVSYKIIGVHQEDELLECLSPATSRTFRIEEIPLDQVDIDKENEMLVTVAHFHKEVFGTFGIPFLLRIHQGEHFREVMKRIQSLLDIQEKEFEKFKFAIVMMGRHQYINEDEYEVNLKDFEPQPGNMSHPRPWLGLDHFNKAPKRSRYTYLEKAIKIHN
# UniProt Q96GJ1: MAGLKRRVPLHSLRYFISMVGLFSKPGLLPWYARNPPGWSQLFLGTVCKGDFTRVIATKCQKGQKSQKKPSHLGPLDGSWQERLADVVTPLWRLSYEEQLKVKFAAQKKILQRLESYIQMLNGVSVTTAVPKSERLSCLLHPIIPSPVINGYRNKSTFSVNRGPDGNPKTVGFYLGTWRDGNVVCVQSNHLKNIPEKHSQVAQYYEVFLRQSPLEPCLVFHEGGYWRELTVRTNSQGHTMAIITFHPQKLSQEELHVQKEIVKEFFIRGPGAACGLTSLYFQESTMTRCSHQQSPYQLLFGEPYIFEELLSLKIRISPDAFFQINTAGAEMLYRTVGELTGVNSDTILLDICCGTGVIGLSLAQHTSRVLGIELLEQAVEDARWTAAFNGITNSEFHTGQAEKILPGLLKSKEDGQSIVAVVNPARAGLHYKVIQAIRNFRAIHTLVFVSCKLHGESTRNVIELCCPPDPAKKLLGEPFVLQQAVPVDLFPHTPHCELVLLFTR
# UniProt Q96JG8: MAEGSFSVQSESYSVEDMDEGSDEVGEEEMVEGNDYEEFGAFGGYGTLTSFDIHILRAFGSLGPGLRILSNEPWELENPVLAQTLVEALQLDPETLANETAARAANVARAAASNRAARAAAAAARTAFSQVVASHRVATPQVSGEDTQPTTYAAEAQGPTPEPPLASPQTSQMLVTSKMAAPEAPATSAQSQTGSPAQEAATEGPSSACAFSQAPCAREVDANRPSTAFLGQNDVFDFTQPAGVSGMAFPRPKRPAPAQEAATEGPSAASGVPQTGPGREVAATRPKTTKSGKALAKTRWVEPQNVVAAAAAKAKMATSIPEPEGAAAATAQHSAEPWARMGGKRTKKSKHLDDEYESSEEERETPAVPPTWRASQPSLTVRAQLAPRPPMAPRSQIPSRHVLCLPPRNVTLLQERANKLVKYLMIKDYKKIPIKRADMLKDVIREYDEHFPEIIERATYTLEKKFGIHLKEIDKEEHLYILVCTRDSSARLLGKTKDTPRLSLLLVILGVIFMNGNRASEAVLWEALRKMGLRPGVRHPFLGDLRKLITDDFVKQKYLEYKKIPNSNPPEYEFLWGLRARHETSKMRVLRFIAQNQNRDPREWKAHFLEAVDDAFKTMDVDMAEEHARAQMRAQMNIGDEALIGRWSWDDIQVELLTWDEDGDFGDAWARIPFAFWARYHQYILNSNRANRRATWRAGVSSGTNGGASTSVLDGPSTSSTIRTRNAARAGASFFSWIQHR
# ± gives the standard deviation of the averaged measurements. The entries are a selection whose mix differs from that of the whole data set. Small differences around the control level are noise.
# Compound: Nc1ncnc2c1ncn2[C@@H]1O[C@H](COP(=O)(O)OP(=O)(O)NP(=O)(O)O)[C@@H](O)[C@H]1O [adenylyl imidodiphosphate]
# Assay: NP40-soluble protein abundance relative to vehicle (solubility fold change) (ratio); higher = more soluble protein in presence of AMP-PNP
# Outline: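 Data come from three independent experiments in which Dounce-homogenised Jurkat crude lysate was treated at eight concentrations from 0.1 to 10 mM. Treatment ran 10 min at room temperature and then 3 min at 37 °C, after which 0.8% NP40 and benzonase were added for 60 min at 4 °C before ultracentrifugation. The supernatant underwent TMT labelling and LC-MS/MS, and vsn-normalised intensities were expressed as fold change against the detergent-processed vehicle in each replicate.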
Target,NP40-soluble protein abundance (concentration: 0.1mM),NP40-soluble protein abundance (concentration: 0.5mM)
RILPL2 (UniProt Q969X0),1 ± 0.042,0.99 ± 0.056
PPP1R14B (UniProt Q96C90),0.985 ± 0.012,1.03 ± 0.021
UniProt Q96EA4,0.99 ± 0.021,0.994 ± 0.027
ATG2B (UniProt Q96BY7),0.983 ± 0.023,0.954 ± 0.041
UniProt Q93015 and related entries,0.949 ± 0.027,0.973 ± 0.073
NUDT11 (UniProt Q96G61),1.04 ± 0.018,1.04 ± 0.048
RBMXL1 (UniProt Q96E39),1.04 ± 0.036,1.06 ± 0.068
MCEE (UniProt Q96PE7),0.98 ± 0.023,1.04 ± 0.064
UniProt Q96DA6 and related entries,1.04 ± 0.087,1.03 ± 0.096
UniProt Q96GX9 and related entries,0.986 ± 0.024,0.994 ± 0.024
UniProt Q96LT9 and related entries,1.015 ± 0.0028,1.01 ± 0.033
UniProt Q96EZ8 and related entries,1 ± 0.014,0.99 ± 0.056
UniProt Q96EX2,0.987 ± 0.021,0.9991 ± 0.0088
UniProt Q96BZ9 and related entries,0.976 ± 0.035,0.985 ± 0.027
DHRS1 (UniProt Q96LJ7),0.988 ± 0.025,0.977 ± 0.022
UniProt Q96J84 and related entries,0.995 ± 0.021,1 ± 0.053
SLC7A6OS (UniProt Q96CW6),0.981 ± 0.018,1.03 ± 0.04
RPRD1A (UniProt Q96P16),1.01 ± 0.042,1.01 ± 0.054
SMARCE1 (UniProt Q969G3),0.997 ± 0.1,1.09 ± 0.17
UniProt Q96K17,0.981 ± 0.019,1.02 ± 0.031

Target,NP40-soluble protein abundance (concentration: 0.1mM),NP40-soluble protein abundance (concentration: 0.5mM)
UniProt Q96HN2-2|Q96HN2,0.987 ± 0.026,1.01 ± 0.03
UniProt Q96K76 and related entries,0.986 ± 0.029,0.985 ± 0.05
UniProt Q96CP6 and related entries,1.01 ± 0.017,1.037 ± 0.0057
UniProt Q96PU5 and related entries,1.04 ± 0.0037,1.018 ± 0.007
LRRC59 (UniProt Q96AG4),0.996 ± 0.066,1.06 ± 0.14
UniProt Q96FJ2,1.08 ± 0.059,1.08 ± 0.086
DNAJC1 (UniProt Q96KC8),1.01 ± 0.028,0.967 ± 0.031
FAF2 (UniProt Q96CS3),0.9792 ± 0.0075,0.965 ± 0.017
UHRF2 (UniProt Q96PU4),0.979 ± 0.016,0.986 ± 0.035
UniProt Q96B23-2,0.965 ± 0.055,1.03 ± 0.067
UniProt Q93100 and related entries,1.03 ± 0.029,0.975 ± 0.11
UniProt Q96CW5 and related entries,1.07 ± 0.046,1.03 ± 0.057
RSPRY1 (UniProt Q96DX4),1.02 ± 0.026,0.986 ± 0.029
EMG1 (UniProt Q92979),1.02 ± 0.012,1.04 ± 0.06
LIN37 (UniProt Q96GY3),0.996 ± 0.018,0.977 ± 0.013
KCTD12 (UniProt Q96CX2),1.01 ± 0.033,0.999 ± 0.067
SENP8 (UniProt Q96LD8),1.03 ± 0.013,1 ± 0.053
GLMN (UniProt Q92990),0.99 ± 0.032,0.953 ± 0.046
VCPIP1 (UniProt Q96JH7),0.998 ± 0.021,0.9789 ± 0.0078
EXOC2 (UniProt Q96KP1),1.05 ± 0.08,0.982 ± 0.033

# A second format for some results above:
Target	NP40-soluble protein abundance (concentration: 0.1mM)	NP40-soluble protein abundance (concentration: 0.5mM)
UniProt Q96HN2-2|Q96HN2	0.987 ± 0.026	1.01 ± 0.03
UniProt Q96K76 and related entries	0.986 ± 0.029	0.985 ± 0.05

# Next part

Target,NP40-soluble protein abundance (concentration: 0.1mM),NP40-soluble protein abundance (concentration: 0.5mM)
UniProt Q96P47 and related entries,1.032 ± 0.0094,1.01 ± 0.023
UniProt Q96D31 and related entries,1.024 ± 0.0055,0.992 ± 0.022
UniProt Q96HA8 and related entries,0.991 ± 0.032,0.975 ± 0.021
UniProt Q93008 and related entries,1.03 ± 0.041,0.967 ± 0.093
UniProt Q96BR5,0.982 ± 0.043,1.03 ± 0.052
UniProt Q96AG3 and related entries,1 ± 0.029,1.01 ± 0.017
MRPL24 (UniProt Q96A35),1.03 ± 0.097,0.979 ± 0.069
USP7 (UniProt Q93009),1 ± 0.028,0.991 ± 0.059
DTNBP1 (UniProt Q96EV8),1.01 ± 0.019,0.996 ± 0.039
UniProt Q96GJ1 and related entries,0.9944 ± 0.0072,0.919 ± 0.035
PYCR2 (UniProt Q96C36),0.965 ± 0.03,0.9825 ± 0.007
UniProt Q96K49 and related entries,0.965 ± 0.029,0.9729 ± 0.0076
DCUN1D1 (UniProt Q96GG9),0.998 ± 0.017,1.02 ± 0.031
PUS7 (UniProt Q96PZ0),1.005 ± 0.0093,1.002 ± 0.0076
UniProt Q96JG8 and related entries,1.007 ± 0.0094,1.01 ± 0.017
UniProt Q96HE7,1.01 ± 0.049,1.05 ± 0.012
UniProt Q96JM3,1 ± 0.022,1.02 ± 0.043
UniProt Q96KP4 and related entries,1 ± 0.021,1.03 ± 0.01
UniProt Q96K58 and related entries,1.02 ± 0.057,1.04 ± 0.067
UniProt Q96BY6 and related entries,1.01 ± 0.016,0.978 ± 0.026
